Experimental data as given in PMC9616737 (2022).
These are yes or no findings as the source states them, for the method shown. For some assays here: Binding can be weak; no strength is given. Sequences can lack the tags named with a protein.

Legend:
[1] = molecular target: human plasma fibronectin (human); test: solid-phase binding assay (DELFIA); ligand coated on the plate (5 μg/cm^2, overnight at +4°C), blocked with Delfia Diluent; soluble GST-tagged receptor in Delfia Assay Buffer ± 2mM MgCl2 or MnCl2 or 5mM EDTA, 1h at RT; detected with Europium-labeled anti-GST antibody; both purified
[2] = molecular target: collagen I; test: as above

binding [1]: binds
binding [2]: no binding (tested: 200 nM)
B1: recombinant embigin extracellular domain GST-fusion protein (EMB-GST) (domain or fragment)
chain: DGSAPDSPFTSPPLREEIMANNFSLESHNISLTEHSSMPVEKNITLERPSNVNLTCQFTTSGDLNAVNVTWKKDGEQLENNYLVSATGSTLYTQYRFTIINSKQMGSYSCFFREEKEQRGTFNFKVPELHGKNKPLISYVGDSTVLTCKCQNCFPLNWTWYSSNGSVKVPVGVQMNKYVINGTYANETKLKITQLLEEDGESYWCRALFQLGESEEHIELVVLSYLVP
